Measured values from article PMC5996148.
Where “and” joins values, the source holds several entries; their conditions need not be identical. Equal entries are not always repeated. The list shows a part of the results. For some assays here: The exact form of the protein is not confirmed.

How the values were obtained:
Assay in all cases: protein microarray (ProtoArray v5.0), streptavidin-Alexa Fluor 647
Conditions in all cases: 3'-biotin; 20 mM Tris (pH 7.5), 5 mM MgCl2, 100 mM KCl, 0.1% Tween-20, A/T-rich and random oligonucleotide blockers; temperature not stated; high values mean tight binding
ALOX15B (human) = tested on: ALOX15B (human)
ALOX5 (human) = tested on: ALOX5 (human)
ALS2 (human) = tested on: ALS2 (human)
AMBP (human) = tested on: AMBP (human)
AMDHD1 (human) = tested on: AMDHD1 (human)
AMELX (human) = tested on: AMELX (human)
ANKHD1 (human) = tested on: ANKHD1 (human)
ANKRD17 (human) = tested on: ANKRD17 (human)
ANKRD45 (human) = tested on: ANKRD45 (human)
ANKRD50 (human) = tested on: ANKRD50 (human)
ANPEP (human) = tested on: ANPEP (human)
ANXA6 (human) = tested on: ANXA6 (human)
ANXA7 (human) = tested on: ANXA7 (human)
ANXA9 (human) = tested on: ANXA9 (human)
APBA2BP (human) = tested on: APBA2BP (human)
APBB1IP = molecular target: T1, APBB1IP (UniProt Q7Z5R6)
T1 sequence: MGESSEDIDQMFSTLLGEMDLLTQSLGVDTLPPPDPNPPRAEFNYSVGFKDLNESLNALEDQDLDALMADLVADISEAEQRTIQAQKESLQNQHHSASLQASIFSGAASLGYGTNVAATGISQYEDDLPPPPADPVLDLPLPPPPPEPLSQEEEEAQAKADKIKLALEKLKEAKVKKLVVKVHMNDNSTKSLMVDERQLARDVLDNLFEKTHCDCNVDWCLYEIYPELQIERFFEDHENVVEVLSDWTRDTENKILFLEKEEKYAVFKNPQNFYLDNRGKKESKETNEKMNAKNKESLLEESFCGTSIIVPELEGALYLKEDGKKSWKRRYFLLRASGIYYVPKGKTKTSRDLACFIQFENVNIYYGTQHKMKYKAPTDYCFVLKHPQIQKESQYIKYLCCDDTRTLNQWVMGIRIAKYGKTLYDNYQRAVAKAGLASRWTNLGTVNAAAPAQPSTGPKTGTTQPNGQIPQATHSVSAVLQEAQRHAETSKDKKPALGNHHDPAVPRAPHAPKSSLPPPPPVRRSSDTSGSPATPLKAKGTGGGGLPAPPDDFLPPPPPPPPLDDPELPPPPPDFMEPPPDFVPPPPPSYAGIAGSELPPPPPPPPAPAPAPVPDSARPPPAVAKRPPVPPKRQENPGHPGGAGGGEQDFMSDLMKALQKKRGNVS

APIP (human) = tested on: APIP (human)
APITD1 (human) = tested on: APITD1 (human)
APOA1 (human) = tested on: APOA1 (human)
APOA2 (human) = tested on: APOA2 (human)

GGGGACAGGGGTATGGGGAGGGG [G4-3 biotinylated (CtG)]
binding signal (ALOX15B (human)): -0.337 z-score | binding signal (ALOX5 (human)): -0.326 z-score | binding signal (ALS2 (human)): -0.309 z-score | binding signal (AMBP (human)): -0.313 z-score | binding signal (AMDHD1 (human)): -0.308 z-score | binding signal (AMELX (human)): -0.333 z-score | binding signal (ANKHD1 (human)): -0.331 z-score and -0.328 z-score | binding signal (ANKRD17 (human)): -0.333 z-score | binding signal (ANKRD45 (human)): -0.338 z-score | binding signal (ANKRD50 (human)): -0.336 z-score | binding signal (ANPEP (human)): -0.319 z-score | binding signal (ANXA6 (human)): -0.308 z-score | binding signal (ANXA7 (human)): -0.309 z-score | binding signal (ANXA9 (human)): -0.339 z-score | binding signal (APBA2BP (human)): -0.331 z-score | binding signal (APBB1IP): -0.328 z-score | binding signal (APIP (human)): -0.331 z-score and -0.313 z-score | binding signal (APITD1 (human)): -0.325 z-score | binding signal (APOA1 (human)): -0.342 z-score | binding signal (APOA2 (human)): -0.341 z-score
